No constants are given. Whether binding was seen depends on the method and setting. Binding seen in cells or lysates may run through a third protein. Some binding calls cover weakened binding; strength is not graded here.
Experiments:
[1] = target: FLAG-tagged wild-type hnRNPAB (heterogeneous nuclear ribonucleoprotein A/B), full-length (human) (UniProt Q99729); assay: co-IP; truncation mapping: FLAG-hnRNPAB constructs (full-length or truncated) with MYC-TRIM25, and MYC-TRIM25 constructs (full-length or truncated) with FLAG-hnRNPAB; immunoblots
[2] = target: hnRNPAB in ESCC cell lines transfected with MYC-TRIM25 and tRF-22 plasmids (human (endogenous in ESCC cell lines)) (UniProt Q99729); assay: co-IP; lysates of ESCC cell lines co-transfected with MYC-TRIM25-WT/ΔPS and tRF-22 overexpression or knock-down plasmids; immunoprecipitation and immunoblotting
[3] = target: hnRNPAB of the co-immunoprecipitation assays of Figure S10B,C (human) (UniProt Q99729); assay: co-IP; co-immunoprecipitation assays of Figure S10B,C; cells and constructs not given
[4] = target: hnRNPAB Lys91Arg mutant (human) (UniProt Q99729); assay: co-IP; immunoprecipitation of wild-type or Lys91Arg hnRNPAB in the RIP assays of Figure S11E, TRIM25 binding compared; cells and constructs not given

Chains of the proteins cited; added tags and fusions are not shown. Lines headed by an entry give the natural chain unless they say otherwise; changes in a name come on top. A line that says so, or that is headed by a name, gives the form on record, which may keep a tag or linker.
UniProt Q99729: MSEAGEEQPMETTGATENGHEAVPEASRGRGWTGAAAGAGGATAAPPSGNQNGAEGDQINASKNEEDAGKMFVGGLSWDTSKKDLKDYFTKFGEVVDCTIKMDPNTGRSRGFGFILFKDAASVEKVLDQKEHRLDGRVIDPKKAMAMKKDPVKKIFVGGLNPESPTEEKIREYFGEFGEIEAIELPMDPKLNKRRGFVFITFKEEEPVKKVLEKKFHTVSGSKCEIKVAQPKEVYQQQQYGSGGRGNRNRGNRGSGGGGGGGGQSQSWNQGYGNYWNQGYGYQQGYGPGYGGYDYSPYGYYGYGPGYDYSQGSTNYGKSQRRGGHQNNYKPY
hnRNPAB Lys91Arg mutant (Q99729, form named): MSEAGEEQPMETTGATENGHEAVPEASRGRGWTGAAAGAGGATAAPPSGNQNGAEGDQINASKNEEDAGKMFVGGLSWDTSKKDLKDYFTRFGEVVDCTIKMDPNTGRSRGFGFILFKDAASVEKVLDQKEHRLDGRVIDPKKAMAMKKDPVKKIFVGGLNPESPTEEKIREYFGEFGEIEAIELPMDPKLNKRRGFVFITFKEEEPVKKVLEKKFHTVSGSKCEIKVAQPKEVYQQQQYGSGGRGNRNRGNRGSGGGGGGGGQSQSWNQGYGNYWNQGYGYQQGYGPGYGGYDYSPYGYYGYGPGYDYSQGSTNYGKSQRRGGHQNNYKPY
UniProt Q14258: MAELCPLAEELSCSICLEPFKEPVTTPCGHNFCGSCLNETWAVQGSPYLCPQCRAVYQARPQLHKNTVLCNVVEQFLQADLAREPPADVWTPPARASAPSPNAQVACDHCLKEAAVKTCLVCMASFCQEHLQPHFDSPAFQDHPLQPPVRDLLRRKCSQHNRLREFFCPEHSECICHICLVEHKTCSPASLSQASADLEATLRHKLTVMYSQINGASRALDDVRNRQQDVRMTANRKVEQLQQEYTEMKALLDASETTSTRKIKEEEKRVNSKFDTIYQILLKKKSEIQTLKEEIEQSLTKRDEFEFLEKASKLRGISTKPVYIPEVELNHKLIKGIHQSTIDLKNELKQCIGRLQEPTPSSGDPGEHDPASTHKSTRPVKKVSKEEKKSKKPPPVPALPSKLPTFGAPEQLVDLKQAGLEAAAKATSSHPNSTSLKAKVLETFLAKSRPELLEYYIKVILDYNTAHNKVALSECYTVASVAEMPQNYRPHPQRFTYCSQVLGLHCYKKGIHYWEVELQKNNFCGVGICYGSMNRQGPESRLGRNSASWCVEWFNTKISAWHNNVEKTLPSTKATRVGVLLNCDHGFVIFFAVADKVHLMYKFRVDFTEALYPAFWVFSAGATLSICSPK

| binding [1] | binding [2] | binding [3] | binding [4] | Substance |
| --- | --- | --- | --- | --- |
| binds | binds | – | – | MYC-tagged wild-type TRIM25, full-length (from UniProt Q14258 1-630) (enzyme) |
| – | – | binds | binds | TRIM25 of the supplementary co-immunoprecipitations (Figures S10B,C and S11E) (from UniProt Q14258 1-630) (enzyme) |
